Assay results reported in US6958321B2, “Isolation, characterization, cloning and use of a mushroom lectin” (The Regents of the University of Michigan, priority 2001, dated 2005).

Key:
[1] = target: Pigeon ovalbumin (pigeon); assay: affinity chromatography on MOA-Sepharose 4B, PBS wash then elution with 20 mM 1,3-diaminopropane in 0.15 M NaCl, A280 of 1 ml fractions
[2] = target: Pigeon ovalbumin (pigeon); assay: affinity chromatography on MOA-Sepharose 4B

B1: Intact native Marasmius oreades agglutinin (MOA) prepared by the method of Example 2 (other)
chain: MSLRRGIYHIENAGVPSAIDLKDGSSSDGTPIVGWQFTPDTINWHQLWLAEPIPNVADTFTLCNLFSGTYMDLYNGSSEAGTAVNGWQGTAFTTNPHQLWTIKKSSDGTSYKIQNYGSKTFVDLVNGDSSDGAKIAGWTGTWDEGNPHQKWYFNRMSVSSAEAQAAIARNPHIHGTYRGYILDGEYLVLPNATFTQIWKDSGLPGSKWREQIYDCDDFAIAMKAAVGKWGADSWKANGFAIFCGVMLGVNKAGDAAHAYNFTLTKDHADIVFFEPQNGGYLNDIGYDSYMAFY
modifications: blocked N-terminus (possibly N-acetyl)
notes: also called native MOA; immobilized MOA
binding [1]: no binding | binding [2]: no binding

No constants are given. Whether binding was seen depends on the method and setting.
